In the supplement of paper PMC10849652:
Some of the results follow.

Sequences of proteins named here, by UniProt entry; tags and fusion partners are left off. A change or cut given only in a name is not applied to a line headed by its entry.
UniProt Q9H3S4: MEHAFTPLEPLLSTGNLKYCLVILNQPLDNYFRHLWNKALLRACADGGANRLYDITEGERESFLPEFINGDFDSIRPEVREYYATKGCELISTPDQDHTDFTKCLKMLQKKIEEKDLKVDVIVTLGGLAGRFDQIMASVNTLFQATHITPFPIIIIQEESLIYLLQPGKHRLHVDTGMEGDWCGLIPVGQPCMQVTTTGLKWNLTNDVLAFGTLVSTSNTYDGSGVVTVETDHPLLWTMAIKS
UniProt P28908: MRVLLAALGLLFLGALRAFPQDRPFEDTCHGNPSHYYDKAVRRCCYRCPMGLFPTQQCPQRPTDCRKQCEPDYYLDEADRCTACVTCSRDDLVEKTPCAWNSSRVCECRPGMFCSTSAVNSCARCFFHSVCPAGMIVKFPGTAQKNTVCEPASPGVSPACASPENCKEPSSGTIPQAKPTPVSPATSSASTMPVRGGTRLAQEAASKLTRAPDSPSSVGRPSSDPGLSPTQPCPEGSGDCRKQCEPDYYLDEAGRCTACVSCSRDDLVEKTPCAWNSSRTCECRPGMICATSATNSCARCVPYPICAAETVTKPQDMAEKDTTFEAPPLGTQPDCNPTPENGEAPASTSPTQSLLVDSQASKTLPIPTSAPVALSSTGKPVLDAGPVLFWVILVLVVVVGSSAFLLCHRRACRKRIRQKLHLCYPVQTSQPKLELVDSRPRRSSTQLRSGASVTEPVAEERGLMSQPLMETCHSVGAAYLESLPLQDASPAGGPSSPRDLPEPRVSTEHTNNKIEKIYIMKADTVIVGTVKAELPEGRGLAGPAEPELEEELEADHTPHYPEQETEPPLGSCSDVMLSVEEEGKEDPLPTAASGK
UniProt Q9P0T7: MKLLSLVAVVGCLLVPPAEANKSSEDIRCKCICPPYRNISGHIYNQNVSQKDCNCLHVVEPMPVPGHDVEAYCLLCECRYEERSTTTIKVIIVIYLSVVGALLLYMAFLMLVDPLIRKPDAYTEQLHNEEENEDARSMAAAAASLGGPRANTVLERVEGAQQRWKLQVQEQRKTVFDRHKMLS
UniProt Q969M1: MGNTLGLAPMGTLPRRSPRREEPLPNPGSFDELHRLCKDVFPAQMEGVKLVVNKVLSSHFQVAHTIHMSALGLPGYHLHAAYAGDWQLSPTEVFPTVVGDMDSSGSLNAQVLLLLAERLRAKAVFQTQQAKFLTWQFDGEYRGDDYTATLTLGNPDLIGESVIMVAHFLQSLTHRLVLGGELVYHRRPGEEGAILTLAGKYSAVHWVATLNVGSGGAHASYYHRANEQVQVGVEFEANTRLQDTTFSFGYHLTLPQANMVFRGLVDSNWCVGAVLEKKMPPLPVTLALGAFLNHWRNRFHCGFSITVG
UniProt Q9HCN3: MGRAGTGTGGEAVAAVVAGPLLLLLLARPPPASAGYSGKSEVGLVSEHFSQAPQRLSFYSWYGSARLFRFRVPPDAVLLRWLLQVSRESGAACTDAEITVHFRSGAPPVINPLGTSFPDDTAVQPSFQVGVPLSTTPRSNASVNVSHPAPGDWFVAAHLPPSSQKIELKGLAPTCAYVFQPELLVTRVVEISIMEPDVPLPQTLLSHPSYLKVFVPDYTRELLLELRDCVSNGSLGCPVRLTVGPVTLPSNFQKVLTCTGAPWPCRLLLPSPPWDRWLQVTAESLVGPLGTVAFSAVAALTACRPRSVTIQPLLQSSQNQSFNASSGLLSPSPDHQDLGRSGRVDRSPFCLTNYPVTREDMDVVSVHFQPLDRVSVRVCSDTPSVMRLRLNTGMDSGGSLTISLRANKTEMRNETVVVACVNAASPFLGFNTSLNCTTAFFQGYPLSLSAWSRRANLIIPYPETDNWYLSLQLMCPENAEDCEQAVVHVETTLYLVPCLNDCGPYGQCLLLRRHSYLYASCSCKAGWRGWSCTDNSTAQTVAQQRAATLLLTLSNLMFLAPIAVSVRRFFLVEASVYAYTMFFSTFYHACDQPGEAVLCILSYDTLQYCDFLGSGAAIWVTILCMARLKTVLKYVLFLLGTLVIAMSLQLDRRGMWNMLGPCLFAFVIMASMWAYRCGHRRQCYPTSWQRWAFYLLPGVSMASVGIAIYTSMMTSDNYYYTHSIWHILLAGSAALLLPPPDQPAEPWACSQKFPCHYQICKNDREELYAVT
UniProt Q03169: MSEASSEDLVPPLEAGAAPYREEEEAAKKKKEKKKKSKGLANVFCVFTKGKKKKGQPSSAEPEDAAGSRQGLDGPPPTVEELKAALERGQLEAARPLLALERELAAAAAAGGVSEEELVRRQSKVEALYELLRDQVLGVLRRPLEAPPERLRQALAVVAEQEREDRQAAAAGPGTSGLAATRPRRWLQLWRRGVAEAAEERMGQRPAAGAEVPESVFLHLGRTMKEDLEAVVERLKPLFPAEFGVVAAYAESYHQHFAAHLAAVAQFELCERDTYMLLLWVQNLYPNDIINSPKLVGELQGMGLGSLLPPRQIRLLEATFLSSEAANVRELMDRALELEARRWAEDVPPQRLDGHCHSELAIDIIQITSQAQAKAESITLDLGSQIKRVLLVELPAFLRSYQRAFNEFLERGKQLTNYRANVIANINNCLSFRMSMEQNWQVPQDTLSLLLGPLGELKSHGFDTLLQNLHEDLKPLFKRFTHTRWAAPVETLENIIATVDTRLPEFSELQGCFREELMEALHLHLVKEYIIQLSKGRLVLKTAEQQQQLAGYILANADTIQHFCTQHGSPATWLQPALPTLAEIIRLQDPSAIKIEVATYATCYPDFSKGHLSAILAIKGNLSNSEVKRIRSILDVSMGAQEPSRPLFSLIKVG
UniProt Q07912: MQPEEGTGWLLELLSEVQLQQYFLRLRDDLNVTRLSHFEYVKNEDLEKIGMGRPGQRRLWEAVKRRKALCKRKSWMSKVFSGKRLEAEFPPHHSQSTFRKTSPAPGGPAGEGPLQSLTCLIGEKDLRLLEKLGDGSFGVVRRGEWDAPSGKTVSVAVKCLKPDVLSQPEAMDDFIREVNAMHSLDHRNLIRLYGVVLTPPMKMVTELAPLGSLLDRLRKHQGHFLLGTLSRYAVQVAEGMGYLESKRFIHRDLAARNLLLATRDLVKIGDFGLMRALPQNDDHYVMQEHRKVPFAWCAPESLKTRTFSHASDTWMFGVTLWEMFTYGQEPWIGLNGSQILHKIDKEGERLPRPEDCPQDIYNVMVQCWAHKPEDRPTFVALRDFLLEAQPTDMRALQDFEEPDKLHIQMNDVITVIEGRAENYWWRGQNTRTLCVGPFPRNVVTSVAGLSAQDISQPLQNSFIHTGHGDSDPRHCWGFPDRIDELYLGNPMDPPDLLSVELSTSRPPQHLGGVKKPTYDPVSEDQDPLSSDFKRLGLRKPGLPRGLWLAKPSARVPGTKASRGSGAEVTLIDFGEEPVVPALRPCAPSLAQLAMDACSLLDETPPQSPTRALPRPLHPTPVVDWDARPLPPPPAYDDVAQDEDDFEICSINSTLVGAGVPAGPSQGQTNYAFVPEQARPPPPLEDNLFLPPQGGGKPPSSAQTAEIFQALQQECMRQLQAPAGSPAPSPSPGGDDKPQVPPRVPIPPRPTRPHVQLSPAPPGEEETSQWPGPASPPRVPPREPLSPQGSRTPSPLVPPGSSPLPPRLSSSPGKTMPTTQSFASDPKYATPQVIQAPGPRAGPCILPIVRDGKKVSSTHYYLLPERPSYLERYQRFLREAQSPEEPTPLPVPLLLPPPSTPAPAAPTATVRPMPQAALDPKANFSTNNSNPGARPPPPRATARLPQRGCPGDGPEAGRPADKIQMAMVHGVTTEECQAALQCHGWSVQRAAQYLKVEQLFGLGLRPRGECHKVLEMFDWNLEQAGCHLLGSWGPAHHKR
UniProt Q5T4D3: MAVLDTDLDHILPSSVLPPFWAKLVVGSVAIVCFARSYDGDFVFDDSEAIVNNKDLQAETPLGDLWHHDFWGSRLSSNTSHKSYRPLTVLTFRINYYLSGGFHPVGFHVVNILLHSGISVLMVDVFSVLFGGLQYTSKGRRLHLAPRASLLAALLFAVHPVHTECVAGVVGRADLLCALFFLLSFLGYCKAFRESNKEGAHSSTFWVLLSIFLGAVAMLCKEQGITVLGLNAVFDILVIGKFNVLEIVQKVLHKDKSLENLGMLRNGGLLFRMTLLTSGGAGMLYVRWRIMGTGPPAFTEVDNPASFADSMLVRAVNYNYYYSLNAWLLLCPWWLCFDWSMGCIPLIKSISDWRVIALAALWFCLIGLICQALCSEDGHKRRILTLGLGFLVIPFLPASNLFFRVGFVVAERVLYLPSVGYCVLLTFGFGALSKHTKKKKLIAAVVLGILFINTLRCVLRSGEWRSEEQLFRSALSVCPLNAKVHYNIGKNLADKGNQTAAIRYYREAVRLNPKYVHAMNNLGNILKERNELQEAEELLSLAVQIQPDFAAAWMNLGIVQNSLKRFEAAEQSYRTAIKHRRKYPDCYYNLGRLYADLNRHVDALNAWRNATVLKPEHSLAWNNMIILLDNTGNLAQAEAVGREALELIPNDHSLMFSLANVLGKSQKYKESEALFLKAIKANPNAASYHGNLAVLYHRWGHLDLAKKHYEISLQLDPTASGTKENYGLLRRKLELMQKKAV
UniProt Q8N2U0: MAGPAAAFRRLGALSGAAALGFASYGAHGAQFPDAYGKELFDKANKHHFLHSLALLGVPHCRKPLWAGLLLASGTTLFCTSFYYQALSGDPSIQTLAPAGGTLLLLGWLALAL
UniProt Q9HBL0: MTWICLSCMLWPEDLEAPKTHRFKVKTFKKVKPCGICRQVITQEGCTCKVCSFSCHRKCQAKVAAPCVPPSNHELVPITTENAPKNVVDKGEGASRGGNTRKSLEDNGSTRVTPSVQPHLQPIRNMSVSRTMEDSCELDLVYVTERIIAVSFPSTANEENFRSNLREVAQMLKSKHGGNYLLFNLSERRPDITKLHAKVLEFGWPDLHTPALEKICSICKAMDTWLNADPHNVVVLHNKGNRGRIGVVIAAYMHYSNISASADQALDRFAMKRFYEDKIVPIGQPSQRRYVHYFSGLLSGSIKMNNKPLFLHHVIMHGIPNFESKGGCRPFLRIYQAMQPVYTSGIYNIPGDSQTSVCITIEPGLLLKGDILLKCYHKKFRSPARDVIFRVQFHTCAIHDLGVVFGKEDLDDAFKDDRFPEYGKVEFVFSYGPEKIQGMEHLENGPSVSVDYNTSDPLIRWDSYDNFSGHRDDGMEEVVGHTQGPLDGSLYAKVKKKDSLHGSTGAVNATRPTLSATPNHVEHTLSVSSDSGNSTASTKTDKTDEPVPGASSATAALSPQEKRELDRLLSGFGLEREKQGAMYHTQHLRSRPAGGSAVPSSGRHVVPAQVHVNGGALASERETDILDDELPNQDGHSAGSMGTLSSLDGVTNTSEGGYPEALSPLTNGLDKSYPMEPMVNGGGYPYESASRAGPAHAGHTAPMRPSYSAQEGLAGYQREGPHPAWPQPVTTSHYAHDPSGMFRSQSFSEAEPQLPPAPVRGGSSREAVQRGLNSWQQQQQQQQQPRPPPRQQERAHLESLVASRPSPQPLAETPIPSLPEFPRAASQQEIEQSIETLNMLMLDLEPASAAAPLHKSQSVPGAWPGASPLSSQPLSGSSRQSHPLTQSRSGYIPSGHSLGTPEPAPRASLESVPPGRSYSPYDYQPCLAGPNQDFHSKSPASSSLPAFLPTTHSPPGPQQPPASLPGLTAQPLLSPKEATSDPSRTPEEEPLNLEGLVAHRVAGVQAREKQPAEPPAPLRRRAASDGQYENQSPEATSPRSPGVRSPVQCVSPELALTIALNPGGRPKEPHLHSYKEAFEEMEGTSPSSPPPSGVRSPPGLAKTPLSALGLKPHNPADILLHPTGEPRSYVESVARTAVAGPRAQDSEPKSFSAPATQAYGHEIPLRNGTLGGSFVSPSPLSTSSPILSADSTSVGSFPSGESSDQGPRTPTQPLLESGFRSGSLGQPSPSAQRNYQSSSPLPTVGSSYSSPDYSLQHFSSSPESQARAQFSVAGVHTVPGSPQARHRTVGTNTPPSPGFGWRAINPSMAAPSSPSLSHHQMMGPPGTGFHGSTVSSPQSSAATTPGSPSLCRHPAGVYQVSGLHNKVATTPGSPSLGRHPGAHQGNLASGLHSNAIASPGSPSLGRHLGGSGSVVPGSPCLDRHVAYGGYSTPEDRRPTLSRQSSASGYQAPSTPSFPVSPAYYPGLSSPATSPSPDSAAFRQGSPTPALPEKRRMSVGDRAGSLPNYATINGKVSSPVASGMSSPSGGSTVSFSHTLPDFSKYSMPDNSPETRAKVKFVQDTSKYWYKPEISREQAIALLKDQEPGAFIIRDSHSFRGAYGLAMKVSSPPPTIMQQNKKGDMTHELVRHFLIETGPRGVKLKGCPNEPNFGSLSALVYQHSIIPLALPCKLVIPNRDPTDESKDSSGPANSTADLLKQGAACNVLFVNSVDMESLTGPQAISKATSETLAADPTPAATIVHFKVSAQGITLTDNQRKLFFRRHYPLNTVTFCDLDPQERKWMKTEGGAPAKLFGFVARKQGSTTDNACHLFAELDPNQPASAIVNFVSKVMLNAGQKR

Legend:
Assay in all cases: log2 fold change, soluble protein after heating vs DMSO (PISA); higher = thermal stabilisation; K562 lysate, 10 uM; active = over 0.2 and 3.5 SD of the protein, either way, in both replicates (recomputed)
lapatinib = compound: CS(=O)(=O)CCNCc1ccc(-c2ccc3ncnc(Nc4ccc(OCc5cccc(F)c5)c(Cl)c4)c3c2)o1 [lapatinib]
Procedure, shortened: (§1)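 Following dounce homogenisation of K562 pellets in PBS pH 7.4 with 1 mM MgCl2, crude extract at 1 mg/mL protein was incubated for 30 min with 10 μM compound. Aliquots were then heated for 3 min over 48°C-58°C and pooled, NP-40 was added to 0.5% at 4°C, and soluble protein was recovered as the supernatant at 21,000xg for 90 min. Channel-sum-equalised TMTpro 16plex LC-MS/MS quantified this protein. Each value, from duplicates, is a log-two fold change in thermal stability relative to solvent controls.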

pictilisib = compound: CS(=O)(=O)N1CCN(Cc2cc3nc(-c4cccc5[nH]ncc45)nc(N4CCOCC4)c3s2)CC1 [pictilisib]
Procedure, shortened: as §1

crizotinib = compound: C[C@@H](Oc1cc(-c2cnn(C3CCNCC3)c2)cnc1N)c1c(Cl)ccc(F)c1Cl [crizotinib]
Procedure, shortened: as §1

[1] = compound: C[C@H](C1=CC=C(C=C1)C(=O)NC2=C3C=CNC3=NC=C2)N
Procedure, shortened: as §1

duvelisib = compound: C[C@H](Nc1ncnc2nc[nH]c12)c1cc2cccc(Cl)c2c(=O)n1-c1ccccc1 [duvelisib]
Procedure, shortened: as §1

gandotinib = compound: Cc1cc(Nc2cc(CN3CCOCC3)c3nc(C)c(Cc4ccc(Cl)cc4F)n3n2)n[nH]1 [gandotinib]
Procedure, shortened: as §1

tozasertib = compound: Cc1cc(Nc2cc(N3CCN(C)CC3)nc(Sc3ccc(NC(=O)C4CC4)cc3)n2)n[nH]1 [tozasertib]
Procedure, shortened: as §1

doramapimod = compound: Cc1ccc(-n2nc(C(C)(C)C)cc2NC(=O)Nc2ccc(OCCN3CCOCC3)c3ccccc23)cc1 [doramapimod]
Procedure, shortened: as §1

bafetinib = compound: Cc1ccc(NC(=O)c2ccc(CN3CC[C@H](N(C)C)C3)c(C(F)(F)F)c2)cc1Nc1nccc(-c2cncnc2)n1 [bafetinib]
Procedure, shortened: as §1

[2] = compound: Cc1cccc(CC(=O)N2CCc3c2ccc(-c2cn(C)c4ncnc(N)c24)c3F)n1
Procedure, shortened: as §1

nilotinib = compound: Cc1cn(-c2cc(NC(=O)c3ccc(C)c(Nc4nccc(-c5cccnc5)n4)c3)cc(C(F)(F)F)c2)cn1 [nilotinib]
Procedure, shortened: as §1

[3] = compound: Cc1nc(Nc2n[nH]c3c2CN(C(=O)N[C@H](CN(C)C)c2ccccc2)C3(C)C)c2sccc2n1
Procedure, shortened: as §1

dasatinib = compound: Cc1nc(Nc2ncc(C(=O)Nc3c(C)cccc3Cl)s2)cc(N2CCN(CCO)CC2)n1 [dasatinib]
Procedure, shortened: as §1

[4] = compound: Cc1ncc(-c2ccnc(Nc3ccc(S(C)(=O)=O)cc3)n2)n1C(C)C
Procedure, shortened: as §1

[5] = compound: Cn1cc(-c2ccc3c(c2)CCN3C(=O)Cc2cccc(C(F)(F)F)c2)c2c(N)ncnc21
Procedure, shortened: as §1

quisinostat = compound: Cn1cc(CNCC2CCN(c3ncc(C(=O)NO)cn3)CC2)c2ccccc21 [quisinostat]
Procedure, shortened: as §1

tipifarnib = compound: Cn1cncc1[C@@](N)(c1ccc(Cl)cc1)c1ccc2c(c1)c(-c1cccc(Cl)c1)cc(=O)n2C [tipifarnib]
Procedure, shortened: as §1

[6] = compound: NC(=O)Nc1cc(-c2cccc(F)c2)sc1C(=O)N[C@H]1CCCNC1
Procedure, shortened: as §1

[7] = compound: NC(=O)c1cnc(N[C@@H]2CCCC[C@@H]2N)nc1Nc1cccc(-n2nccn2)c1
Procedure, shortened: as §1

[8] = compound: NC1(c2ccc(-c3nc4ccn5c(=O)[nH]nc5c4cc3-c3ccccc3)cc2)CCC1
Procedure, shortened: as §1

Target	log2 fold change (lapatinib)	log2 fold change (pictilisib)	log2 fold change (crizotinib)	log2 fold change [1]	log2 fold change (duvelisib)	log2 fold change (gandotinib)	log2 fold change (tozasertib)	log2 fold change (doramapimod)	log2 fold change (bafetinib)	log2 fold change [2]	log2 fold change (nilotinib)	log2 fold change [3]	log2 fold change (dasatinib)	log2 fold change [4]	log2 fold change [5]	log2 fold change (quisinostat)	log2 fold change (tipifarnib)	log2 fold change [6]	log2 fold change [7]	log2 fold change [8]
TMX2 (UniProt Q9Y320)	inactive: -0.002	inactive: -0.032	inactive: -0.031	inactive: -0.029	inactive: -0.028	inactive: 0.032	inactive: 0.068	inactive: 0.069	inactive: 0.01	inactive: -0.005	inactive: 0.005	inactive: 0.015	inactive: -0.041	inactive: -0.015	inactive: 0.026	inactive: 0.063	inactive: 0.001	inactive: -0.041	inactive: -0.045	inactive: -0.001
TPK1 (UniProt Q9H3S4)	inactive: -0.004	inactive: -0.029		inactive: 0.059	inactive: 0.068	inactive: 0.036	inactive: -0.176		inactive: 0.031	inactive: 0.01	inactive: 0.068	inactive: -0.052	inactive: 0.049	inactive: 0.018	inactive: 0.009		inactive: -0.172		inactive: 0.002	inactive: -0.081
TOM1 (UniProt O60784)	inactive: 0.03	inactive: -0.07		inactive: 0.085	inactive: -0.028	inactive: -0.034	inactive: 0.116		inactive: -0.003	inactive: -0.027			inactive: -0.033		inactive: 0				inactive: -0.006	inactive: -0.243
TNFRSF8 (UniProt P28908)	inactive: 0.02	inactive: -0.075	inactive: -0.004	inactive: -0.04	inactive: -0.025	inactive: 0.035	inactive: 0.038	inactive: 0.058	inactive: -0.036	inactive: 0.006	inactive: -0.01	inactive: 0.011	inactive: 0.046	inactive: -0.024	inactive: 0.01	inactive: -0.001	inactive: 0.034	inactive: -0.026	inactive: -0.027	inactive: 0.002
TMEM189-UBE2V1 (UniProt I3L0A0)	inactive: -0.017	inactive: -0.029	inactive: -0.009	inactive: -0.035	inactive: 0.042	inactive: 0.059	inactive: 0.016	inactive: 0.021	inactive: -0.022	inactive: 0.043	inactive: 0.046	inactive: -0.002	inactive: -0.009	inactive: 0.035	inactive: 0.066	inactive: -0.032	inactive: -0.024	inactive: -0.043	inactive: -0.037	inactive: -0.042
TOR1B (UniProt O14657)	inactive: -0.013	inactive: -0.033	inactive: -0.01	inactive: -0.03	inactive: 0.01	inactive: 0.048	inactive: 0.095	inactive: 0.058	inactive: -0.054	inactive: 0.003	inactive: 0.045	inactive: -0.01	inactive: -0.018	inactive: 0	inactive: 0.034	inactive: -0.073	inactive: -0.059	inactive: 0.008	inactive: 0.003	inactive: -0.023
TMEM9 (UniProt Q9P0T7)	inactive: -0.007	inactive: -0.016	inactive: 0.025	inactive: 0.002	inactive: 0.004	inactive: -0.027		inactive: -0.047	inactive: 0.046	inactive: 0.006	inactive: 0.058	inactive: 0.03	inactive: 0.034	inactive: 0.026	inactive: 0.025	inactive: 0.049	inactive: -0.046	inactive: -0.013	inactive: -0.024	inactive: -0.032
TNRC6C isoform 2 (UniProt Q9HCJ0)	inactive: -0.008	inactive: -0.275		inactive: 0.013	inactive: 0.239	inactive: -0.481	inactive: -0.11		inactive: 0.055	inactive: 0.05			inactive: 0.12		inactive: 0.019				inactive: 0.018	inactive: -0.005
TMEM205 (UniProt Q6UW68)	inactive: 0.033	inactive: 0.097	inactive: -0.075		inactive: 0.027		inactive: -0.06	inactive: -0.003	inactive: -0.085		inactive: -0.058	inactive: 0.079	inactive: 0.019	inactive: 0.062	inactive: -0.034	inactive: -0.097	inactive: 0.166	inactive: -0.072	inactive: -0.053	inactive: -0.023
TOMM40L (UniProt Q969M1)	inactive: -0.006	inactive: 0.004	inactive: -0.062	inactive: -0.045	inactive: -0.008	inactive: 0.077	inactive: 0	inactive: 0	inactive: -0.066	inactive: 0.029	inactive: -0.001	inactive: -0.041	inactive: 0.04	inactive: -0.015	inactive: -0.022	inactive: -0.14	inactive: 0.144	inactive: 0.02	inactive: -0.011	inactive: -0.07
TMEM8A (UniProt Q9HCN3)	inactive: -0.042	inactive: 0.072		inactive: -0.006		inactive: -0.015	inactive: -0.028		inactive: -0.17	inactive: -0.031									inactive: -0.213	inactive: -0.012
TNFAIP2 (UniProt Q03169)	inactive: -0.079	inactive: -0.053	inactive: -0.094	inactive: -0.206	inactive: 0.002	inactive: 0.267	inactive: 0.005	inactive: 0.001	inactive: -0.093	inactive: 0.281	inactive: 0.034	inactive: -0.161	inactive: -0.011	inactive: 0.05	inactive: -0.007	inactive: -0.176	inactive: 0.057	inactive: 0.003	inactive: 0.092	inactive: -0.026
TNK2 isoform 3 (UniProt Q07912)		inactive: -0.085	inactive: 0.324	inactive: 0.049		inactive: 0.138		inactive: -0.029	inactive: -0.38	inactive: 0.068						inactive: -0.357		inactive: 0.465		
TMTC4 isoform 3 (UniProt Q5T4D3)					inactive: 0.009		inactive: -0.171						inactive: -0.052		inactive: 0.177					
TPD52 isoform 3 (UniProt P55327)	inactive: 0.011						inactive: 0.179												inactive: 0.062	inactive: -0.043
TMPO isoform 2 (UniProt P42167)		inactive: 0.04			inactive: -0.041		inactive: -0.029		inactive: -0.026				inactive: -0.042		inactive: -0.072					
TMEM256 (UniProt Q8N2U0)	inactive: 0.007				inactive: -0.147		inactive: 0.066						inactive: -0.046		inactive: 0.045				inactive: -0.026	
TPM3 isoform 3 (UniProt P06753)	inactive: -0.009		inactive: 0.095	active: -0.411	inactive: 0.011	inactive: 0.176	inactive: 0.143	inactive: 0.027		inactive: 0.202			inactive: 0.05		inactive: 0.106	inactive: 0.112		inactive: -0.09	inactive: 0.001	inactive: -0.035
TNS1 (UniProt Q9HBL0)		inactive: -0.132	inactive: -0.043	inactive: -0.188		inactive: 0.111	inactive: -0.027	inactive: -0.123	inactive: -0.078	inactive: 0.123	inactive: 0.015	inactive: -0.007		inactive: -0.021		inactive: -0.112	inactive: 0.027	inactive: 0.043		

Another view of part of the listing above:
Target | log2 fold change (lapatinib) | log2 fold change (pictilisib) | log2 fold change (crizotinib) | log2 fold change [1] | log2 fold change (duvelisib) | log2 fold change (gandotinib) | log2 fold change (tozasertib) | log2 fold change (doramapimod) | log2 fold change (bafetinib) | log2 fold change [2] | log2 fold change (nilotinib) | log2 fold change [3] | log2 fold change (dasatinib) | log2 fold change [4] | log2 fold change [5] | log2 fold change (quisinostat) | log2 fold change (tipifarnib) | log2 fold change [6] | log2 fold change [7] | log2 fold change [8]
TOM1 (UniProt O60784) | inactive: 0.03 | inactive: -0.07 |  | inactive: 0.085 | inactive: -0.028 | inactive: -0.034 | inactive: 0.116 |  | inactive: -0.003 | inactive: -0.027 |  |  | inactive: -0.033 |  | inactive: 0 |  |  |  | inactive: -0.006 | inactive: -0.243
TMEM205 (UniProt Q6UW68) | inactive: 0.033 | inactive: 0.097 | inactive: -0.075 |  | inactive: 0.027 |  | inactive: -0.06 | inactive: -0.003 | inactive: -0.085 |  | inactive: -0.058 | inactive: 0.079 | inactive: 0.019 | inactive: 0.062 | inactive: -0.034 | inactive: -0.097 | inactive: 0.166 | inactive: -0.072 | inactive: -0.053 | inactive: -0.023
